These are yes or no findings as the source states them, for the method shown. In cells and extracts the contact can be indirect. Binding calls can cover weak binding; strength is not graded here. Sequences can lack the tags named with a protein.
Target: T1, SBP-Flag Rnd3 (mouse) (UniProt P61588)
T1 sequence: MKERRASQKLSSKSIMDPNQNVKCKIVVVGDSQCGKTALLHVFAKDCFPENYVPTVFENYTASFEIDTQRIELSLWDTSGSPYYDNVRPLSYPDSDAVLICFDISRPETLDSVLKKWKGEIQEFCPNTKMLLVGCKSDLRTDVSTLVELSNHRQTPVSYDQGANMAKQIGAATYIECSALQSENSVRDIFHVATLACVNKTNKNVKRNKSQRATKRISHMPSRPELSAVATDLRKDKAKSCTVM
Assay: pull-down; streptavidin (SBP) pull-down from lysates of co-transfected 293T cells, SBP-Flag GTPase as bait; beads 1 h at 4°C, 3 washes, elution with 2 mM biotin; immunoblot for Flag

binding: binds
Substance: zebrafish Syx RBD(173–246) (domain or fragment)
